Results reported in PubChem BioAssay AID2685 (National Center for Advancing Translational Sciences (NCATS), 2010).
Some of the results follow. Further columns of the screen follow, without active or inactive calls. The list favours compounds with an active or inconclusive main result. Words in brackets tell the shape of the fitted curve; partial curves, single points and poor fits give uncertain potencies.

Assay: qHTS Assay for Lipid Storage Modulators in Drosophila S3 Cells;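 on cell number change: cells counted by Cell Tracker Red CMTPX staining in the red channel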
Settings: BODIPY lipid droplet fluorescence, 18-24 h; for cell number change: measured here: cell count max response, cells fed with added oleic acid
Summary of the method: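 Laser-scanning cytometry quantifies lipid droplet accumulation (500–530 nm total intensity; droplet/cell object ratio) in oleic acid-fed (400 uM added) Drosophila S3 cells treated with a concentration series. 20 uM Triacsin C defined 100% inhibition.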

[1] = measured here: cell number channel AC50, cells fed with added oleic acid
[2] = measured here: lipid fluorescence (Fed channel) AC50, cells fed with added oleic acid

Row | SMILES | cell number change [%] | AC50 [1] | AC50 [2]
1 | OCCN(Cc1ccccc1)Cc1ccccc1Cl | -31.5 | 20.6 µM [falling, single point] | 18.4 µM [falling, single point]
2 | CCOC(=O)CNC(=O)CSc1nnc(-c2cccc(C)c2)n1-c1ccc(OC)cc1 | 3.67 | – | 0.013 µM [rising, full curve]
3 | O=C(COc1ccccc1[N+](=O)[O-])Nc1cccc(S(=O)(=O)NC2=NCCCCC2)c1 | – | – | 0.206 µM [rising, full curve, poor fit]
4 | CC(=O)NCC(=O)N(c1ccccc1)C1(C(=O)NC2CCCCC2)CCCCC1 | 8.64 | – | 2.91 µM [rising, partial curve]
5 | COc1ccc(N(C(=O)C(C)C)S(=O)(=O)c2cccs2)cc1 | -3.53 | – | 18.4 µM [falling, partial curve]
6 | COc1ccc(C2=NOC(C(=O)NCc3ccc(F)cc3)C2)cc1 (centres undefined) | -142 | 14.6 µM [falling, partial curve] | –
7 | CCOc1cc(/C=N/O)ccc1OCc1ccccc1F | -25.4 | – | 1.03 µM [rising, full curve, poor fit]
8 | Oc1ccccc1CNc1ccc(OC(F)(F)F)cc1 | -44.9 | 23.1 µM [falling, single point] | 32.6 µM [falling, partial curve]
9 | COc1ccc(/C=C2\C(=O)NC(=S)N2C(=O)c2ccc(F)cc2)cc1 | -19.7 | – | 16.4 µM [falling, single point]
10 | O=C(O)C1=C[C@H](c2ccc(C(F)(F)F)cc2)C[C@H](OCc2ccc(CO)cc2)O1 | 11.8 | – | 29.1 µM [rising, single point]
11 | CCCNC(=O)N1CCN(C(c2ccccc2)c2ccccc2)CC1 | 46.3 | 6.51 µM [rising, full curve, poor fit] | 20.6 µM [rising, partial curve]
12 | CN(C)S(=O)(=O)c1cccc(COC(=O)c2ccc3c(c2)OCO3)c1 | – | 0.651 µM [rising, full curve, poor fit] | –
13 | COc1ccc(OC)c(C(=O)NC(CC(N)=O)c2ccc(N3CCN(c4ccc(F)cc4)CC3)c([N+](=O)[O-])c2)c1 (centres undefined) | 6.59 | – | 3.26 µM [rising, single point]
14 | Cc1ccc(S(=O)(=O)NCc2ccc(/C=C(/C#N)C(=O)NCc3ccccc3)o2)cc1 | -9.23 | – | 29.1 µM [falling, single point]
15 | O=C(O)CNCC1COc2ccccc2O1 (centres undefined) | -33.7 | 0.651 µM [falling, full curve] | 0.517 µM [falling, full curve]
16 | CC1Cc2cc(/C(O)=C3/C(=O)C(=O)N(CCN4CCOCC4)C3c3ccc(C(C)C)cc3)ccc2O1 (centres undefined) | 12.8 | – | –
17 | O=C(NC(=S)Nc1ccccc1N1CCCCC1)c1cccs1 | 32.7 | 7.31 µM [rising, partial curve] | 7.31 µM [rising, partial curve]
18 | CC(CC(=O)Nc1ccc(Cl)c([N+](=O)[O-])c1)c1ccccc1 (centres undefined) | -7.39 | – | 6.51 µM [rising, single point]
19 | NC(=O)c1ccccc1NS(=O)(=O)Cc1ccccc1 | 94.9 | 29.1 µM [rising, partial curve, poor fit] | 29.1 µM [rising, partial curve]

Row | SMILES | cell number change [%] | AC50 [1] | AC50 [2]
20 | CN(C)CCCNS(=O)(=O)c1ccc(-n2nnc3ccccc32)c([N+](=O)[O-])c1 | -2.86 | – | 0.206 µM [falling, single point]
21 | O=C(Nc1cccc(Cl)c1)c1cccc(Oc2ccc([N+](=O)[O-])cc2Cl)c1 | -3.33 | – | –
22 | CCOCCCNC(=O)C(Cc1ccccc1)NS(=O)(=O)c1ccc2c(c1)c(=O)n(C)c(=O)n2C (centres undefined) | 17.7 | 0.651 µM [rising, partial curve, poor fit] | 0.00461 µM [rising, full curve, poor fit]
23 | Cc1ccc(NC(=O)c2ccc(Cl)c(S(=O)(=O)N3CCCCC3)c2)nc1 | -15 | – | 29.1 µM [falling, single point]
24 | CC(=O)N1c2ccc(S(=O)(=O)N3CCC(C(=O)Nc4cccc(F)c4)CC3)cc2CC1C (centres undefined) | -20.6 | – | –
25 | NC(=O)NS(=O)(=O)Oc1ccccc1 | -7.44 | – | –
26 | CCCNC(=O)Cn1cnc2sc(C(=O)NCCCN3CCOCC3)c(C)c2c1=O | -0.295 | – | 1.16 µM [falling, partial curve]
27 | CCC/C(O)=C1\C(=O)CC(C)(C)CC1=Nc1ccccc1OC | 8.37 | 2.59 µM [rising, single point] | 2.06 µM [rising, partial curve, poor fit]
28 | O=c1c2ccccc2c2ccccc2c(=O)n1-c1ccccc1 | -12 | – | –
29 | O=Cc1c(N2CCCCCC2)nc2ccccn2c1=O | 17.4 | – | 29.1 µM [falling, single point]
30 | CCCCOC(=O)c1ccc(NC(=O)c2ccoc2C)cc1 | 63.4 | 6.51 µM [rising, full curve] | –
31 | CCC(=O)N1CCN(c2c(Cl)cccc2[N+](=O)[O-])CC1 | -13.9 | 0.184 µM [rising, full curve] | –
32 | O=C(NNC(=O)C1CCN(Cc2ccccc2)CC1)c1cccs1 | -13.1 | 0.0058 µM [falling, full curve, poor fit] | –
33 | COc1ccc(Cn2c(CCC(=O)Nc3ccccc3)nc3cccnc32)cc1 | -38.8 | 16.4 µM [falling, single point] | 0.461 µM [rising, full curve, poor fit]
34 | CCCc1nc2ccccc2n1CCOc1ccccc1 | -10.5 | – | 0.291 µM [rising, partial curve, poor fit]
35 | Cc1cccc(NC(=O)CN2CCN(C(=O)C3CCN(C(=O)/C=C/c4ccccc4)CC3)CC2)c1C | -11.3 | – | 3.26 µM [falling, single point]
36 | Cc1ccc(S(=O)(=O)N2CCN(C(=O)CSC(=S)N3CCCC3)CC2)c(C)c1 | -18.3 | – | 6.51 µM [falling, single point]
37 | COc1ccc(CNC(=O)C2=C(C)C(=O)OC23CCC(C)CC3)cc1 (centres undefined) | – | 0.651 µM [rising, single point] | 0.58 µM [rising, single point]
38 | CCCNC1=CC(=O)CC(C)(C)C1 | 21 | – | 0.0058 µM [rising, full curve, poor fit]

Row | SMILES | cell number change [%] | AC50 [1] | AC50 [2]
39 | O=c1c2ccccc2ncn1CCCSc1ccc(Cl)cc1 | 25.3 | – | –
40 | COC(=O)C1=C(C)N(CCCC(=O)O)C(=O)NC1c1ccc(-c2ccccc2)cc1 (centres undefined) | 10 | – | 5.8 µM [falling, partial curve]
41 | Cc1cc2occ(CC(=O)N(C)CC(=O)Nc3ccccc3Cl)c2cc1C | 51 | – | 29.1 µM [rising, single point]
42 | O=C(O)c1cnn2c(C(F)(F)F)cc(-c3ccccc3)nc12 | – | 0.92 µM [rising, full curve, poor fit] | 0.731 µM [rising, partial curve]
43 | CC(=O)Nc1ccc(S(=O)(=O)Nc2cccc(-n3c(C)nc4ccccc4c3=O)c2)cc1 | – | – | 6.51 µM [rising, single point]
44 | CC(=O)Nc1ccc2c(c1)C(=O)c1ccccc1C2=O | -25.4 | – | 5.17 µM [falling, full curve, poor fit]
45 | Cc1ccc(S(=O)(=O)N2CCCOC2CNC(=O)C(=O)NCc2ccncc2)cc1 (centres undefined) | 77.9 | 0.651 µM [rising, full curve] | 3.66 µM [rising, full curve]
46 | CC(=O)c1cccc(NC(=O)N2CCc3ccccc3C2)c1 | -13.7 | – | 1.16 µM [falling, single point]
47 | CCOC(=O)Cc1c(C)[nH]n(-c2ccccc2)c1=O | -7.79 | – | 0.231 µM [falling, full curve, poor fit]
48 | O=C1NC(=S)N/C1=C/c1ccc(-c2c(Br)cc([N+](=O)[O-])cc2Br)o1 | – | – | 29.1 µM [falling, single point]
49 | COCCn1c(SCC(=O)N2CCCCCC2)nnc1-c1ccco1 | 9.21 | – | –
50 | CCOC(=O)[C@H]1[C@H]2COc3ccc(Cl)cc3[C@@H]2N2C(=O)c3cc(F)c(F)cc3NC(=O)[C@@]12C | -37.8 | 9.2 µM [falling, partial curve] | 23.1 µM [falling, single point]
51 | O=C(CCN1C(=O)/C(=C/c2cccs2)SC1=S)Nc1cccc(O)c1 | -4.17 | – | 0.517 µM [falling, single point]
52 | CCOC(=O)N1CCN(C(=O)CS(=O)(=O)c2cn(Cc3ccccc3Cl)c3ccccc23)CC1 | – | – | 29.1 µM [rising, single point]
53 | CC(OC(=O)c1ccc2c(c1)S(=O)(=O)c1ccccc1C2=O)C(N)=O (centres undefined) | -4.05 | – | 29.1 µM [rising, single point]
54 | COc1ccc(OCCCC(=O)NC(C)c2ccccc2)cc1 (centres undefined) | – | 0.517 µM [falling, single point] | 6.51 µM [falling, single point]
55 | CCn1c(Cc2ccc(OC)cc2)nnc1SCc1nc2ccccc2c(=O)[nH]1 | – | 2.91 µM [rising, partial curve] | 0.366 µM [rising, full curve]
56 | CN(C)c1cccc2c1c(NC(=O)c1ccc(Cl)cc1)nn2C | 6.03 | – | 2.06 µM [rising, full curve]
57 | CCc1c(C)c2ccc(OCC(=O)N(C)C)c(C)c2oc1=O | 46.6 | 4.11 µM [rising, partial curve, poor fit] | 0.103 µM [rising, single point]

12 entries already listed, arranged by molar mass, high to low:
Row | SMILES | cell number change [%] | AC50 [1] | AC50 [2]
22 | CCOCCCNC(=O)C(Cc1ccccc1)NS(=O)(=O)c1ccc2c(c1)c(=O)n(C)c(=O)n2C (centres undefined) | 17.7 | 0.651 µM [rising, partial curve, poor fit] | 0.00461 µM [rising, full curve, poor fit]
50 | CCOC(=O)[C@H]1[C@H]2COc3ccc(Cl)cc3[C@@H]2N2C(=O)c3cc(F)c(F)cc3NC(=O)[C@@]12C | -37.8 | 9.2 µM [falling, partial curve] | 23.1 µM [falling, single point]
43 | CC(=O)Nc1ccc(S(=O)(=O)Nc2cccc(-n3c(C)nc4ccccc4c3=O)c2)cc1 | – | – | 6.51 µM [rising, single point]
45 | Cc1ccc(S(=O)(=O)N2CCCOC2CNC(=O)C(=O)NCc2ccncc2)cc1 (centres undefined) | 77.9 | 0.651 µM [rising, full curve] | 3.66 µM [rising, full curve]
41 | Cc1cc2occ(CC(=O)N(C)CC(=O)Nc3ccccc3Cl)c2cc1C | 51 | – | 29.1 µM [rising, single point]
12 | CN(C)S(=O)(=O)c1cccc(COC(=O)c2ccc3c(c2)OCO3)c1 | – | 0.651 µM [rising, full curve, poor fit] | –
11 | CCCNC(=O)N1CCN(C(c2ccccc2)c2ccccc2)CC1 | 46.3 | 6.51 µM [rising, full curve, poor fit] | 20.6 µM [rising, partial curve]
27 | CCC/C(O)=C1\C(=O)CC(C)(C)CC1=Nc1ccccc1OC | 8.37 | 2.59 µM [rising, single point] | 2.06 µM [rising, partial curve, poor fit]
54 | COc1ccc(OCCCC(=O)NC(C)c2ccccc2)cc1 (centres undefined) | – | 0.517 µM [falling, single point] | 6.51 µM [falling, single point]
7 | CCOc1cc(/C=N/O)ccc1OCc1ccccc1F | -25.4 | – | 1.03 µM [rising, full curve, poor fit]
34 | CCCc1nc2ccccc2n1CCOc1ccccc1 | -10.5 | – | 0.291 µM [rising, partial curve, poor fit]
15 | O=C(O)CNCC1COc2ccccc2O1 (centres undefined) | -33.7 | 0.651 µM [falling, full curve] | 0.517 µM [falling, full curve]
